{"source": "PubChem BioAssay AID1224826 (NIAID, 2016)", "aim": "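Regulators of Tlr4 signalling leading to Tnf-alpha expression in macrophages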 (primary screen)", "cells": "RAW264.7 G9 macrophages from mouse bearing reporters for p65 (GFP) and the Tnf promoter (mCherry)", "reagent": "siRNA pool against mouse genes, 100 nM", "duration": "16 h of LPS stimulation, after 2 days of siRNA transfection", "conditions": "bacterial lipopolysaccharide (Salmonella minnesota R595), 10 ng/ml", "detection": "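Imaged Tnf reporter mCherry in nuclei, minus background, normalised per plate to the median and expressed as robust z-scores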", "direction": "Tnf reporter robust z-score: higher = stronger Tnf promoter reporter signal after LPS", "rule for the call": "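a well counts as active at a score of -1.3 or below (Tlr4 knock-down control median) or above 3 (raised signal); controls and wells holding fewer than 50 cells are excluded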", "calls": "active = Tnf reporter clearly lowered or raised; inactive = no clear change in Tnf reporter", "note": "Here is a random part of about 17,000 reagents. Of all reagents, about 1,110 (6.6%) were called active. 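Active means lowered or raised reporter signal; replicate intensities are raw and not normalised per plate.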 Entries without a mark were called inactive. Reagents against one gene are numbered here. Further read-outs or replicates are left out here. Reagent sequences are not shown."}
{"gene knocked down":"Taf13 (GeneID 99730)","reagent no.":1,"Tnf reporter robust z-score":0.63,"fewer than 50 cells in well":"enough cells in well"}
{"gene knocked down":"Pi16 (GeneID 74116)","reagent no.":1,"Tnf reporter robust z-score":2.06,"fewer than 50 cells in well":"enough cells in well"}
{"gene knocked down":"Col2a1 (GeneID 12824)","reagent no.":1,"Tnf reporter robust z-score":0.15,"fewer than 50 cells in well":"enough cells in well"}
{"gene knocked down":"Zfp260 (GeneID 26466)","reagent no.":1,"Tnf reporter robust z-score":2.14,"fewer than 50 cells in well":"enough cells in well"}
{"gene knocked down":"Kcnmb1 (GeneID 16533)","reagent no.":1,"Tnf reporter robust z-score":1.21,"fewer than 50 cells in well":"enough cells in well"}
{"gene knocked down":"Rbmxl1 (GeneID 19656)","reagent no.":1,"Tnf reporter robust z-score":"3.2 (active)","fewer than 50 cells in well":"enough cells in well"}
{"gene knocked down":"Ccz1 (GeneID 231874)","reagent no.":1,"Tnf reporter robust z-score":-0.51,"fewer than 50 cells in well":"enough cells in well"}
{"gene knocked down":"Erlin2 (GeneID 244373)","reagent no.":1,"Tnf reporter robust z-score":-0.17,"fewer than 50 cells in well":"enough cells in well"}
{"gene knocked down":"Adamts18 (GeneID 208936)","reagent no.":1,"Tnf reporter robust z-score":-0.3,"fewer than 50 cells in well":"enough cells in well"}
{"gene knocked down":"Atp5mc2 (GeneID 67942)","reagent no.":1,"Tnf reporter robust z-score":-0.02,"fewer than 50 cells in well":"enough cells in well"}
{"gene knocked down":"Hsp90ab1 (GeneID 15516)","reagent no.":1,"Tnf reporter robust z-score":0.04,"fewer than 50 cells in well":"enough cells in well"}
{"gene knocked down":"Sik1 (GeneID 17691)","reagent no.":1,"Tnf reporter robust z-score":1.94,"fewer than 50 cells in well":"enough cells in well"}
{"gene knocked down":"Zkscan17 (GeneID 268417)","reagent no.":1,"Tnf reporter robust z-score":"3.18 (active)","fewer than 50 cells in well":"enough cells in well"}
{"gene knocked down":"Smu1 (GeneID 74255)","reagent no.":1,"fewer than 50 cells in well":"fewer than 50 cells per well; well left out of calls"}
{"gene knocked down":"Zfp689 (GeneID 71131)","reagent no.":1,"Tnf reporter robust z-score":-0.85,"fewer than 50 cells in well":"enough cells in well"}
{"gene knocked down":"Igfbp1 (GeneID 16006)","reagent no.":1,"Tnf reporter robust z-score":1.44,"fewer than 50 cells in well":"enough cells in well"}
{"gene knocked down":"Rbm14 (GeneID 56275)","reagent no.":1,"Tnf reporter robust z-score":-0.43,"fewer than 50 cells in well":"enough cells in well"}
{"gene knocked down":"Fadd (GeneID 14082)","reagent no.":1,"Tnf reporter robust z-score":1.08,"fewer than 50 cells in well":"enough cells in well"}
{"gene knocked down":"Dpp10 (GeneID 269109)","reagent no.":1,"Tnf reporter robust z-score":0.35,"fewer than 50 cells in well":"enough cells in well"}
{"gene knocked down":"Tgm3 (GeneID 21818)","reagent no.":1,"Tnf reporter robust z-score":0.3,"fewer than 50 cells in well":"enough cells in well"}
{"gene knocked down":"Lctl (GeneID 235435)","reagent no.":1,"Tnf reporter robust z-score":0.42,"fewer than 50 cells in well":"enough cells in well"}
{"gene knocked down":"Dpp3 (GeneID 75221)","reagent no.":1,"Tnf reporter robust z-score":-0.47,"fewer than 50 cells in well":"enough cells in well"}
{"gene knocked down":"Or10ak7 (GeneID 258394)","reagent no.":1,"Tnf reporter robust z-score":1.83,"fewer than 50 cells in well":"enough cells in well"}
{"gene knocked down":"Or10ak7 (GeneID 258394)","reagent no.":2,"Tnf reporter robust z-score":-0.62,"fewer than 50 cells in well":"enough cells in well"}
{"gene knocked down":"Zfp750 (GeneID 319530)","reagent no.":1,"Tnf reporter robust z-score":1.77,"fewer than 50 cells in well":"enough cells in well"}
{"gene knocked down":"Dpys (GeneID 64705)","reagent no.":1,"Tnf reporter robust z-score":0.15,"fewer than 50 cells in well":"enough cells in well"}
{"gene knocked down":"Plcb3 (GeneID 18797)","reagent no.":1,"Tnf reporter robust z-score":-0.16,"fewer than 50 cells in well":"enough cells in well"}
